The results in this text go back to paper PMC3320885 (PLoS ONE, 2012).

This data set relates to Src or Abl. Nature of the data set: Inhibitor fluorescence increase on binding to kinase. Further details: species or system human. The settings on record: excitation 350 nm, relative to free ligand.

With `COc1cc2c(Nc3cc(Cl)c(OC)c(Cl)c3)c(C#N)cnc2cc1OCCCN1CCN(C)CC1` [bosutinib isomer], the “increase in fluorescence intensity at 480 nm upon binding” value was around 500 fold. As for `COc1cc(Nc2c(C#N)cnc3cc(OCCCN4CCN(C)CC4)c(OC)cc23)c(Cl)cc1Cl` [bosutinib], the “increase in fluorescence intensity at 480 nm upon binding” value is around 10 fold.
